Results from the supplement of paper PMC10849652.
Some of the results follow. Residues, ends and D or L forms follow the SMILES beside them. *: point of attachment. Cbz = O=C(OCc1ccccc1)*

Amino acid sequences for entries named in this document (tags omitted). A change or cut given only in a name is not applied to a line headed by its entry.
UniProt O43731: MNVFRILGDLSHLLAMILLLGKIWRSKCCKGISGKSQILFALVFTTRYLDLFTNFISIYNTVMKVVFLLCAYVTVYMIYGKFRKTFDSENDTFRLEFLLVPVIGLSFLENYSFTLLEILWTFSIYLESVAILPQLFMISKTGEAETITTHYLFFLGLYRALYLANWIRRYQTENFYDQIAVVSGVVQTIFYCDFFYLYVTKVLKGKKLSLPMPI
UniProt Q8NHM5: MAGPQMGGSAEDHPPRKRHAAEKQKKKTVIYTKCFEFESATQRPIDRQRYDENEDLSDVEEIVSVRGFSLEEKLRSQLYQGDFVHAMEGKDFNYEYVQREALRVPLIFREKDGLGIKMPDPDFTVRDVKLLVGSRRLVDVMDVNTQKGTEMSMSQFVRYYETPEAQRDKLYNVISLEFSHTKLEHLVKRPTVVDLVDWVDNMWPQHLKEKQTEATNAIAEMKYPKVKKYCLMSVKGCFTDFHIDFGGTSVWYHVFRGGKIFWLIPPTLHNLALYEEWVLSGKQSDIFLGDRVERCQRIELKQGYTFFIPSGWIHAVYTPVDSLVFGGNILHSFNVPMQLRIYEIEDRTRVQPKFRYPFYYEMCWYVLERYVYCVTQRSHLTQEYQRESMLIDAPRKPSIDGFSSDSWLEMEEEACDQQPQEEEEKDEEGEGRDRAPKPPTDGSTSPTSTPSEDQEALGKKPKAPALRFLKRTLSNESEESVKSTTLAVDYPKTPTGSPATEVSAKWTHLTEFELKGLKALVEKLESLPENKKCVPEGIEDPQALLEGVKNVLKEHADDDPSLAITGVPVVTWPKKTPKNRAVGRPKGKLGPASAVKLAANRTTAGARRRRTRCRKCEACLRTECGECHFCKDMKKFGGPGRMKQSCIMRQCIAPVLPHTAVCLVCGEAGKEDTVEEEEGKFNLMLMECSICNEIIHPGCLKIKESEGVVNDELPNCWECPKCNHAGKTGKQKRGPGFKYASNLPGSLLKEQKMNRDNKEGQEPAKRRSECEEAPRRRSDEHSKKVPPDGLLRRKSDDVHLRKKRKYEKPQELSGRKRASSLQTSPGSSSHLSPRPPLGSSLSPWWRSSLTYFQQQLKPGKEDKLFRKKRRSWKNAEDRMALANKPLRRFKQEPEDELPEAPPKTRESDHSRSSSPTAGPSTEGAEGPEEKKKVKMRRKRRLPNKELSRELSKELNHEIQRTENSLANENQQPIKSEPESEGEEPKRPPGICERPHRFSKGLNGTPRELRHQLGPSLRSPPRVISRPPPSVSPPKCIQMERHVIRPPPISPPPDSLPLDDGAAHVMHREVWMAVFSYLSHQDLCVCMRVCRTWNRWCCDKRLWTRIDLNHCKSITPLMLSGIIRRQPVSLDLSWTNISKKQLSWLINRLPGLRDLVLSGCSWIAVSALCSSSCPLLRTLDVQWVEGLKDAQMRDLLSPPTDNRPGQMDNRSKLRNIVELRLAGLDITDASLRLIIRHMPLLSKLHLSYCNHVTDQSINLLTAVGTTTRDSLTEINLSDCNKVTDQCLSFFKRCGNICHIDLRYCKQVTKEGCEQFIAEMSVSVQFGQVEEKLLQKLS
UniProt Q2LD37: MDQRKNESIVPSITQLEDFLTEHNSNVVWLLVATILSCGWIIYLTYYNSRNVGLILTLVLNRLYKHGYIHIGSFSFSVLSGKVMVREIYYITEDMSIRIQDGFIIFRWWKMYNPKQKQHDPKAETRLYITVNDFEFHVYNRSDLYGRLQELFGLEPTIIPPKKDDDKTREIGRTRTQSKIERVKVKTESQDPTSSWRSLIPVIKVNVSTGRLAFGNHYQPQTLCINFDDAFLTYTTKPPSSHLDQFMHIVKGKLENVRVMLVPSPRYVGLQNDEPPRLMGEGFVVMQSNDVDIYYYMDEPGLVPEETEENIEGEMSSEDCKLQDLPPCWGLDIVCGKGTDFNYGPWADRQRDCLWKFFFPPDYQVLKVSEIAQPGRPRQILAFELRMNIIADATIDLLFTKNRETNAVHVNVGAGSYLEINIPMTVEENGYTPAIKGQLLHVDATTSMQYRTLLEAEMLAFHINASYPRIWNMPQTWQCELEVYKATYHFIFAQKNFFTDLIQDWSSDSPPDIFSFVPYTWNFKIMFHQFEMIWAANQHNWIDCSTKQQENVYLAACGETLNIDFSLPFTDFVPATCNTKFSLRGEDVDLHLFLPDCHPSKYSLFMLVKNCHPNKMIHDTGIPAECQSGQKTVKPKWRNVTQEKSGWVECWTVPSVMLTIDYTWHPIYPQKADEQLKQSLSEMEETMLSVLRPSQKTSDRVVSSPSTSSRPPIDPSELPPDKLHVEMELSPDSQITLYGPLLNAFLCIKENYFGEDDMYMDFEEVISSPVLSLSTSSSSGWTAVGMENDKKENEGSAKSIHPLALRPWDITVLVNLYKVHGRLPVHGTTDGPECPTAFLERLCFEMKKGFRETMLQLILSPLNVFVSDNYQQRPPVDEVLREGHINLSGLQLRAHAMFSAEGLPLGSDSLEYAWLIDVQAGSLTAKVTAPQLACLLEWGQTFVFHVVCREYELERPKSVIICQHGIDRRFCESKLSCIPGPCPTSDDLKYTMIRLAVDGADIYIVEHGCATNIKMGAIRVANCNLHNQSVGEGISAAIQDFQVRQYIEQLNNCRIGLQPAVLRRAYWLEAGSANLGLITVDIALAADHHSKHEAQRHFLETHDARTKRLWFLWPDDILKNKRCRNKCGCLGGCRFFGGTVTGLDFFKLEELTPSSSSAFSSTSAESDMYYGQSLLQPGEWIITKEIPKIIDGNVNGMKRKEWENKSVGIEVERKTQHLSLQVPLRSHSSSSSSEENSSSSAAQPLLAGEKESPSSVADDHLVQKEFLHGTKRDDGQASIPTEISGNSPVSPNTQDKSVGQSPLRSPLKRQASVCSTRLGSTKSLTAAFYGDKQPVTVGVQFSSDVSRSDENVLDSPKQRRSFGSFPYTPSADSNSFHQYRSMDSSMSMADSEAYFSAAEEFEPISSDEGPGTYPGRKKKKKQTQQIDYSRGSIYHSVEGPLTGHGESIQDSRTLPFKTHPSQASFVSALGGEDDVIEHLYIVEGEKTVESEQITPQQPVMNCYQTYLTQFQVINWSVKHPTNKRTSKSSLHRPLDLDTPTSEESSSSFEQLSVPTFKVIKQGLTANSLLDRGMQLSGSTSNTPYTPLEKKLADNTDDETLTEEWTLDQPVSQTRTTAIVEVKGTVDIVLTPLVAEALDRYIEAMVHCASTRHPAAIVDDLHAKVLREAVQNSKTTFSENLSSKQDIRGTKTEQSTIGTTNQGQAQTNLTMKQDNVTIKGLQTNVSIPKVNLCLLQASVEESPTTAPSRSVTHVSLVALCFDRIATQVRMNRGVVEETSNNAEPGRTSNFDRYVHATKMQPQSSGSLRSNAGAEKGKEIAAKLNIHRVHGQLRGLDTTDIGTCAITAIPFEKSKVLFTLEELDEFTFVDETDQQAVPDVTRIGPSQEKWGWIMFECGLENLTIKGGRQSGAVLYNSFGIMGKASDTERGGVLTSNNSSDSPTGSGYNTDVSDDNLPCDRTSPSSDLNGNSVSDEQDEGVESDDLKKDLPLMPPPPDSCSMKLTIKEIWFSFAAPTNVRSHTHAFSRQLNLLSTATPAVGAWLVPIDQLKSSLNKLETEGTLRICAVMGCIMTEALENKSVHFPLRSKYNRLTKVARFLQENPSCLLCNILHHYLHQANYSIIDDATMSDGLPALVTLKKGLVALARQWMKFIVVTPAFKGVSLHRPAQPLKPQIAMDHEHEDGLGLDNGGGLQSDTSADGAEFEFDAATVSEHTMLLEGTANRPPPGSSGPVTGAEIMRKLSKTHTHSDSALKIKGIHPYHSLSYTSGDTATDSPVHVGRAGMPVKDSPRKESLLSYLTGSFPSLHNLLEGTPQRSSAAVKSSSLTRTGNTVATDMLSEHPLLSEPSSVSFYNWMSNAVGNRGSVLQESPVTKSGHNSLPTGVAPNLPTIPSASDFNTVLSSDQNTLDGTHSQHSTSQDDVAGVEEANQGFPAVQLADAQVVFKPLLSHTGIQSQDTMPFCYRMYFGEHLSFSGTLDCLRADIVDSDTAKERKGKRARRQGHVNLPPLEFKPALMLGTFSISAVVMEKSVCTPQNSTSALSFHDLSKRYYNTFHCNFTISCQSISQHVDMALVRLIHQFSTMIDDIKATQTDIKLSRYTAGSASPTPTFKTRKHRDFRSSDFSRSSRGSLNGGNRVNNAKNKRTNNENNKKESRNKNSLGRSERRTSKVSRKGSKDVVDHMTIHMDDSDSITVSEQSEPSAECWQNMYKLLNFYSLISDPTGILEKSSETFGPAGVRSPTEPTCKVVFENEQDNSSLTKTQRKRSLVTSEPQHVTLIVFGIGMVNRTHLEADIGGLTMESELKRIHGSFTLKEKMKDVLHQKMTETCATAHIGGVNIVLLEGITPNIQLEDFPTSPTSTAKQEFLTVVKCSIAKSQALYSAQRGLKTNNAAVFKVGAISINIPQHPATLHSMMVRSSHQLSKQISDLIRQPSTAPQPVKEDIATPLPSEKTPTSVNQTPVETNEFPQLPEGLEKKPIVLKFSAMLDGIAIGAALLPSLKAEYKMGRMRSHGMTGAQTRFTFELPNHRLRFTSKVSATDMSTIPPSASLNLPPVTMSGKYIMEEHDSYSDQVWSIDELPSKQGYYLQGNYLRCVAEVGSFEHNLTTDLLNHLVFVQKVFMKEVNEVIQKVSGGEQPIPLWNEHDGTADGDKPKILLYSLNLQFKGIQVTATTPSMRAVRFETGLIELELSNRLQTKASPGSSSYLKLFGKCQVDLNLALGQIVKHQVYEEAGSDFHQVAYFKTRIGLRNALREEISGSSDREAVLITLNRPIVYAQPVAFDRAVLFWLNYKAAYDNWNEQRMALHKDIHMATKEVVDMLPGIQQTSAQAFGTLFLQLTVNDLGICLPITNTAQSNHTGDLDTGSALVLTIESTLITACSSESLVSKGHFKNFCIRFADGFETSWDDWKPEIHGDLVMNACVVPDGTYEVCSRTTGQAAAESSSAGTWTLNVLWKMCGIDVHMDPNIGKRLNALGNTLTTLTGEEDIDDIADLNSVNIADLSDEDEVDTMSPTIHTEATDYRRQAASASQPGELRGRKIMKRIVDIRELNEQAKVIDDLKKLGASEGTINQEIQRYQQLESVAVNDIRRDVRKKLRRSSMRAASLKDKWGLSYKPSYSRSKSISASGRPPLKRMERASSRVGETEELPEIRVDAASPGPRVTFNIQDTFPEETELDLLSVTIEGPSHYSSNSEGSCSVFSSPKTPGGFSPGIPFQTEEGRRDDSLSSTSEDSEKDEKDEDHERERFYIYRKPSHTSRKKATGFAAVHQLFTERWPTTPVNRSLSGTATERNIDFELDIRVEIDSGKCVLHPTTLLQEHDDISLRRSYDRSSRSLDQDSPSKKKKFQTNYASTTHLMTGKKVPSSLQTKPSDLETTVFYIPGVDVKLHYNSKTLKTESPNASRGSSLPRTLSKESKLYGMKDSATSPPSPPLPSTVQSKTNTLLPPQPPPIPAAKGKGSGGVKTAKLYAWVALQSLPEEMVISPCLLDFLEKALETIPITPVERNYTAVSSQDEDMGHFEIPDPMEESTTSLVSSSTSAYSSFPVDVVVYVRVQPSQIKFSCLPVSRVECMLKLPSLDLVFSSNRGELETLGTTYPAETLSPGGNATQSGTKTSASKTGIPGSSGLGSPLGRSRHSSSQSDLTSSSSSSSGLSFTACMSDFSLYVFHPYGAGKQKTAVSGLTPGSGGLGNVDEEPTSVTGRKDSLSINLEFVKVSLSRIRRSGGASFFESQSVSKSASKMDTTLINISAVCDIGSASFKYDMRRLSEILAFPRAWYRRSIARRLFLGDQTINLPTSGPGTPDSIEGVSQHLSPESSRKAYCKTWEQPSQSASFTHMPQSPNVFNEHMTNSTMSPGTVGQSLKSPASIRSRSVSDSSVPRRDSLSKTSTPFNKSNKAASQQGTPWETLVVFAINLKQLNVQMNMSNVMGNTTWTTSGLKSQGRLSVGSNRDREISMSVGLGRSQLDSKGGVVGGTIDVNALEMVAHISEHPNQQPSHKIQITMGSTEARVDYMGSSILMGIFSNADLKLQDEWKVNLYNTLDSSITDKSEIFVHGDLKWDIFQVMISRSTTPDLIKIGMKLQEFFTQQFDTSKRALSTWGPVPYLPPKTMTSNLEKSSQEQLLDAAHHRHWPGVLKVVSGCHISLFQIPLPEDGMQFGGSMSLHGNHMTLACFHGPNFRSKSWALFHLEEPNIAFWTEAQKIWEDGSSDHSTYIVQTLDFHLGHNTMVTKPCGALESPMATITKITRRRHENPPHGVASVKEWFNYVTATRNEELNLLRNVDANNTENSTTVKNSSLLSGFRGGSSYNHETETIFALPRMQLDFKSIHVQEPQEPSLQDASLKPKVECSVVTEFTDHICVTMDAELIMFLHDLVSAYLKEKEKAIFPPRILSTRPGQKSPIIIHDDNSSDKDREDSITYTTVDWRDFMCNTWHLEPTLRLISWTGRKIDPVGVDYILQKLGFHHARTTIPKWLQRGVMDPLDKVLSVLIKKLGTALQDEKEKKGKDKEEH

Legend:
Assay in all cases: log2 fold change, soluble protein after heating vs DMSO (PISA); higher = thermal stabilisation; K562 cells, 10 uM, 30 min; active = over 0.2 and 3.5 SD of the protein, either way, in both replicates (recomputed)
IRAK-1-4 Inhibitor I = compound: C1COCCN1CCN2C3=CC=CC=C3N=C2NC(=O)C4=CC(=CC=C4)[N+](=O)[O-] [IRAK-1-4 Inhibitor I]
Summary of the method: (§1)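 K562 cells at 2×10^6 cells/mL were treated with 10 μM compound for 30 min. Aliquots were heated for 3 min across 48°C-58°C, pooled, and extracted in PBS with 0.5% NP-40 at 4°C; soluble protein was the supernatant after 21,000xg for 90 min. Soluble protein was quantified by TMTpro 16plex LC-MS/MS with channel sums equalised, and reported as log2 fold change in thermal stability against DMSO controls, with values from duplicates.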

ibrutinib = compound: C=CC(=O)N1CCC[C@@H](n2nc(-c3ccc(Oc4ccccc4)cc3)c3c(N)ncnc32)C1 [ibrutinib]
Summary of the method: as §1

[1] = compound: CC(=O)c1cnc2ccc(-c3cc(Cl)c(O)c(Cl)c3)nc2c1N[C@H]1CC[C@H](CN(C)C)CC1
Summary of the method: as §1

[2] = compound: CC(C)C1=C2N=C(C=C(N2N=C1)NCC3=CC=CC=C3)NCCCCCCN
Summary of the method: as §1

pinometostat = compound: CC(C)N(C[C@H]1O[C@@H](n2cnc3c(N)ncnc32)[C@H](O)[C@@H]1O)[C@H]1C[C@@H](CCc2nc3cc(C(C)(C)C)ccc3[nH]2)C1 [pinometostat]
Summary of the method: as §1

[3] = compound: CC1=C(C(CC(=O)N1)C2=CC=C(C=C2)C(F)(F)F)C(=O)NC3=C(C=C4C(=C3)C=NN4)F
Summary of the method: as §1

[4] = compound: CC1=C(C2=C(C=C1)C(=O)C3=CC=CC=C3N2CCCN)C
Summary of the method: as §1

[5] = compound: CC(C)(O)CC(=O)NCCn1ccc2ncnc(Nc3ccc(Oc4cccc(C(F)(F)F)c4)c(Cl)c3)c21
Summary of the method: as §1

ralimetinib = compound: CC(C)(C)Cn1c(N)nc2ccc(-c3[nH]c(C(C)(C)C)nc3-c3ccc(F)cc3)nc21 [ralimetinib]
Summary of the method: as §1

[6] = compound: CC(C)C[C@@H](C=O)NC(=O)[C@H](CC(C)C)NC(=O)[C@H](CC(C)C)NC(=O)OCc1ccccc1
Summary of the method: as §1

Target | log2 fold change (IRAK-1-4 Inhibitor I) | log2 fold change (ibrutinib) | log2 fold change [1] | log2 fold change [2] | log2 fold change (pinometostat) | log2 fold change [3] | log2 fold change [4] | log2 fold change [5] | log2 fold change (ralimetinib) | log2 fold change [6]
KDELR3 (UniProt O43731) | inactive: 0.083 | inactive: -0.136 | inactive: 0.09 | inactive: -0.128 | inactive: -0.126 | inactive: -0.013 | inactive: 0.152 |  |  | 
JTB (UniProt O76095) | inactive: -0.311 | inactive: -0.046 | inactive: 0 | inactive: 0.067 | inactive: 0.031 | inactive: -0.061 | inactive: 0.015 | inactive: -0.047 |  | 
KRAS isoform 2 (UniProt P01116) | inactive: 0.045 | inactive: -0.035 | inactive: -0.07 | inactive: 0.099 | inactive: 0.014 |  | inactive: 0.072 | inactive: 0.101 | inactive: 0.02 | active: 0.241
KIAA0513 (UniProt O60268) | inactive: -0.015 | inactive: 0.043 | inactive: 0.015 | inactive: -0.051 | inactive: 0.113 | inactive: 0.016 | inactive: -0.066 |  |  | 
KHDC4 (UniProt Q7Z7F0) | inactive: 0.034 | inactive: 0.025 | inactive: 0.003 | inactive: -0.009 | inactive: -0.001 |  | inactive: 0.021 | inactive: -0.201 | inactive: 0.012 | inactive: 0.015
KLF16 (UniProt Q9BXK1) | inactive: -0.064 | inactive: -0.124 | inactive: 0.037 | inactive: -0.02 | inactive: 0.184 | inactive: 0.184 | inactive: -0.275 |  |  | 
KNG1 (UniProt P01042) | inactive: 0.099 | inactive: 0.254 | inactive: 0.109 | inactive: 0.201 | inactive: -0.129 | inactive: -0.052 | inactive: -0.139 |  | inactive: -0.096 | inactive: 0.06
KPNA1 (UniProt P52294) | inactive: -0.046 | inactive: -0.073 | inactive: 0.062 | inactive: 0.084 | inactive: 0.071 |  | active: -0.26 | inactive: -0.022 | inactive: 0.089 | inactive: 0.123
KIF1B isoform 4 (UniProt O60333) | inactive: -0.004 | inactive: -0.017 | inactive: 0 | inactive: 0.002 | inactive: 0.061 |  | inactive: -0.024 | inactive: -0.063 | inactive: -0.029 | inactive: 0.002
JMJD6 isoform 3 (UniProt Q6NYC1) | inactive: -0.02 | inactive: -0.011 | inactive: -0.049 | inactive: -0.041 | inactive: -0.016 |  | inactive: 0.102 | inactive: 0.019 | inactive: -0.065 | inactive: 0.004
KIF3A (UniProt Q9Y496) | inactive: 0.04 | inactive: -0.016 | inactive: 0.034 | inactive: -0.336 | inactive: 0.051 |  | inactive: -0.081 | inactive: -0.151 | inactive: 0.085 | inactive: -0.065
KIFC3 isoform 6 (UniProt Q9BVG8) |  | inactive: -0.125 |  | inactive: -0.073 |  | inactive: 0.044 | inactive: -0.112 | inactive: 0 | inactive: -0.292 | inactive: 0.273
KALRN (UniProt O60229) |  | inactive: 0.044 |  | inactive: 0.113 |  | inactive: 0.131 |  | inactive: 0.046 |  | 
JUN (UniProt P05412) |  | inactive: 0.43 |  | inactive: -0.074 |  | inactive: 0.202 | inactive: 0.037 |  | inactive: 0.04 | inactive: 0.129
KDM2B (UniProt Q8NHM5) |  | inactive: -0.001 |  |  |  |  |  |  |  | 
KIAA1755 (UniProt Q5JYT7) | inactive: 0.02 | inactive: -0.077 |  | inactive: -0.064 | inactive: -0.021 |  | inactive: 0.105 | inactive: 0.034 | inactive: -0.021 | inactive: 0.007
KNL1 (UniProt Q8NG31) | inactive: -0.261 |  |  | inactive: 0.111 | inactive: 0.352 |  | inactive: 0.085 | inactive: -0.024 | inactive: 0.177 | inactive: 0.188

Another view of some results above:
Target,log2 fold change (IRAK-1-4 Inhibitor I),log2 fold change (ibrutinib),log2 fold change [1],log2 fold change [2],log2 fold change (pinometostat),log2 fold change [3],log2 fold change [4],log2 fold change [5],log2 fold change (ralimetinib),log2 fold change [6]
KDELR3 (UniProt O43731),inactive: 0.083,inactive: -0.136,inactive: 0.09,inactive: -0.128,inactive: -0.126,inactive: -0.013,inactive: 0.152,,,
JTB (UniProt O76095),inactive: -0.311,inactive: -0.046,inactive: 0,inactive: 0.067,inactive: 0.031,inactive: -0.061,inactive: 0.015,inactive: -0.047,,
KIAA0513 (UniProt O60268),inactive: -0.015,inactive: 0.043,inactive: 0.015,inactive: -0.051,inactive: 0.113,inactive: 0.016,inactive: -0.066,,,
KLF16 (UniProt Q9BXK1),inactive: -0.064,inactive: -0.124,inactive: 0.037,inactive: -0.02,inactive: 0.184,inactive: 0.184,inactive: -0.275,,,
KNG1 (UniProt P01042),inactive: 0.099,inactive: 0.254,inactive: 0.109,inactive: 0.201,inactive: -0.129,inactive: -0.052,inactive: -0.139,,inactive: -0.096,inactive: 0.06
KIF1B isoform 4 (UniProt O60333),inactive: -0.004,inactive: -0.017,inactive: 0,inactive: 0.002,inactive: 0.061,,inactive: -0.024,inactive: -0.063,inactive: -0.029,inactive: 0.002
KIF3A (UniProt Q9Y496),inactive: 0.04,inactive: -0.016,inactive: 0.034,inactive: -0.336,inactive: 0.051,,inactive: -0.081,inactive: -0.151,inactive: 0.085,inactive: -0.065
KALRN (UniProt O60229),,inactive: 0.044,,inactive: 0.113,,inactive: 0.131,,inactive: 0.046,,
KDM2B (UniProt Q8NHM5),,inactive: -0.001,,,,,,,,

Additional records:

Target | log2 fold change (IRAK-1-4 Inhibitor I) | log2 fold change (ibrutinib) | log2 fold change [1] | log2 fold change [2] | log2 fold change (pinometostat) | log2 fold change [3] | log2 fold change [4] | log2 fold change [5] | log2 fold change (ralimetinib) | log2 fold change [6]
JMJD7 (UniProt P0C870) |  | inactive: -0.137 |  | inactive: 0.102 |  | inactive: -0.063 |  | inactive: 0.04 |  | 
KIDINS220 isoform 2 (UniProt Q9ULH0) | inactive: 0.012 | inactive: 0.088 |  |  | inactive: -0.045 | inactive: 0.148 | inactive: 0.125 | inactive: 0.116 |  | 
KIF26A (UniProt Q9ULI4) | inactive: -0.02 | inactive: -0.024 |  | inactive: 0.05 | inactive: -0.013 | inactive: 0.006 |  |  | inactive: -0.043 | inactive: 0.028
KAT6B (UniProt Q8WYB5) |  | inactive: 0.056 | inactive: 0.069 | inactive: 0.112 |  | inactive: 0.134 | inactive: -0.063 |  | inactive: -0.033 | inactive: 0.021
KIAA1109 (UniProt Q2LD37) | inactive: 0.055 |  |  | inactive: 0.094 | inactive: 0.041 |  |  |  |  | 
KCTD1 (UniProt Q719H9) | inactive: -0.048 |  |  |  | inactive: -0.031 | inactive: -0.129 | inactive: 0.011 | inactive: -0.043 |  | 
KDF1 (UniProt Q8NAX2) | inactive: -0.035 |  |  | inactive: 0.15 | inactive: -0.025 |  |  |  | inactive: 0.097 | inactive: 0.043
KRIT1 (UniProt O00522) |  | inactive: 0.434 |  | inactive: 0.022 |  | inactive: -0.206 |  | inactive: -0.011 | inactive: -0.026 | inactive: -0.048
KDELR1 (UniProt P24390) | inactive: 0.061 | inactive: 0.115 |  | inactive: 0.141 | inactive: -0.003 | inactive: 0.039 | inactive: -0.132 | inactive: 0.081 | inactive: -0.08 | inactive: -0.028
KIF1C (UniProt O43896) | inactive: -0.51 | inactive: 0.015 |  |  | inactive: 0.261 |  |  |  |  | 
KMT2C isoform 3 (UniProt Q8NEZ4) |  | inactive: 0.007 | inactive: -0.02 | inactive: -0.06 |  |  | inactive: 0.049 | inactive: -0.044 | inactive: 0.074 | inactive: 0.191
KRT87P (UniProt A6NCN2) |  | inactive: 0.231 |  |  |  |  |  |  |  | 
JAK3 (UniProt P52333) | inactive: -0.01 | inactive: -0.052 |  | inactive: 0.072 | inactive: -0.082 |  | inactive: -0.089 | inactive: -0.045 | inactive: -0.184 | inactive: -0.043
KISS1R (UniProt Q969F8) | inactive: 0.01 | inactive: -0.058 |  | inactive: 0.106 | inactive: 0.005 |  | inactive: -0.029 | inactive: -0.134 | inactive: 0.037 | inactive: 0.06
KLHL18 (UniProt O94889) |  | inactive: 0.082 | inactive: 0.104 | inactive: -0.117 |  |  | inactive: 0.088 | inactive: 0.006 | inactive: 0.055 | inactive: -0.111
KCNK5 (UniProt O95279) | inactive: -0.033 | inactive: 0.019 |  | active: -2.03 | inactive: 0 |  |  | inactive: -0.209 |  | 
KIAA0754 (UniProt O94854) |  | inactive: 0.003 |  |  |  |  | inactive: -0.173 | inactive: 0.246 | inactive: -0.013 | inactive: 0.07
